Patent US20150299258A1 (UNIVERSITY OF TOKYO, published 2015)
No constants are given. Whether binding was seen depends on the method and setting. Some results given as binding are weak or reduced against the parent protein; the word gives no strength. For part of these data: Where a sequence is shown, tags or fusion partners need not be part of it.

By UniProt entry, the sequences of proteins in these tests, tags left out. Where a name states a change or a piece, a line headed by the entry shows the natural chain unless it says otherwise.
UniProt P35968: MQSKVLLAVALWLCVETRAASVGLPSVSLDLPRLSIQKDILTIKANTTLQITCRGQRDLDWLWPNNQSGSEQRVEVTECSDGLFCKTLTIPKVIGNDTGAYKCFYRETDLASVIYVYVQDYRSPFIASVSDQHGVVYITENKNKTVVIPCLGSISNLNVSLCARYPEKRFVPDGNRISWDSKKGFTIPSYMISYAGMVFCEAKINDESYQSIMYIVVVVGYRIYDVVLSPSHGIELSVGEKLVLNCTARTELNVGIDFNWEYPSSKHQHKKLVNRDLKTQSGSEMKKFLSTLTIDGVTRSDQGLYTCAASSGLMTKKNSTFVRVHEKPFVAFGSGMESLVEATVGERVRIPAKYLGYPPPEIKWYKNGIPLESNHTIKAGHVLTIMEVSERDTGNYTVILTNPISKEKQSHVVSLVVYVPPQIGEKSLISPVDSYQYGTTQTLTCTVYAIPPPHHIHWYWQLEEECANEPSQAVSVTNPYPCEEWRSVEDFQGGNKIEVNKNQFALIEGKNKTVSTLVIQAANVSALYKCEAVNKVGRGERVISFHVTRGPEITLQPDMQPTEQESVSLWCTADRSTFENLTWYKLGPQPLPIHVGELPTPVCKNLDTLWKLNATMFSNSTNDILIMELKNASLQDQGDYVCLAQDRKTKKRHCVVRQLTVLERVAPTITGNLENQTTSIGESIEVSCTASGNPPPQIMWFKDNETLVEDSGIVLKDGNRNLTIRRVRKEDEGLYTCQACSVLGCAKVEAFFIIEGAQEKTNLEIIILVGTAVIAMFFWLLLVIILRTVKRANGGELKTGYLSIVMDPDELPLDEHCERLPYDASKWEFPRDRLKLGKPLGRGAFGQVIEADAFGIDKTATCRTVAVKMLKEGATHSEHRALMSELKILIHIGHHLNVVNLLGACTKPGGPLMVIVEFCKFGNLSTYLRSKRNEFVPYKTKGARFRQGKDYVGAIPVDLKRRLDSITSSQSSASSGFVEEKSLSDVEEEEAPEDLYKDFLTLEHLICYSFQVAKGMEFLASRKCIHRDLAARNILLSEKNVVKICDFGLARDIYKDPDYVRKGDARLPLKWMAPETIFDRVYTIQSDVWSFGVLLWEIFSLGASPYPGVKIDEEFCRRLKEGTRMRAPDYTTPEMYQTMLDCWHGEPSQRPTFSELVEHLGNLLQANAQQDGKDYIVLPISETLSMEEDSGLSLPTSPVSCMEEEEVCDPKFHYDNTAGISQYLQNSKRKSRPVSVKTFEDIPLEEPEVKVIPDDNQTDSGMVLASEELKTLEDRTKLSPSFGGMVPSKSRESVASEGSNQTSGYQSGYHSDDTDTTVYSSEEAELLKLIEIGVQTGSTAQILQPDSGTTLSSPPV

Target: extracellular domain of VEGFR2 immobilized onto magnetic beads (Homo sapiens (Human)) (UniProt P35968)
Assay: TRAP display selection on immobilised VEGFR2, second optimisation of L1

binding, binds:
FTVTHIDPWVNGLWLPC (ClAc on N-terminal Phe, cyclised to the C-terminal Cys)
FTVIHPDPWVNGLWLPC (ClAc on N-terminal Phe, cyclised to the C-terminal Cys)
FQVSHPDPWVNGLILQC (ClAc on N-terminal Phe, cyclised to the C-terminal Cys)
FSVVHSDPWVNGLYLSC (ClAc on N-terminal Phe, cyclised to the C-terminal Cys)
FKVSHFDPWVNGLWLPC (ClAc on N-terminal Phe, cyclised to the C-terminal Cys)
FIVYHADPWVNGLWLSC (ClAc on N-terminal Phe, cyclised to the C-terminal Cys)
FTVTHRDPWVNGLILSC (ClAc on N-terminal Phe, cyclised to the C-terminal Cys)
FVVQHRDPWVNGLWFPC (ClAc on N-terminal Phe, cyclised to the C-terminal Cys)
FTVVHADPWVNGLYLPC (ClAc on N-terminal Phe, cyclised to the C-terminal Cys)
FTVTHSDPWVNGLFLPC (ClAc on N-terminal Phe, cyclised to the C-terminal Cys)
FTVVHSDPWVNGLWLPC (ClAc on N-terminal Phe, cyclised to the C-terminal Cys)
FVVSHHDPWVNGLFIAC (ClAc on N-terminal Phe, cyclised to the C-terminal Cys)
FTVFHTDPWVNGLWISC (ClAc on N-terminal Phe, cyclised to the C-terminal Cys)
FHVTHQDPWVNGLWIAC (ClAc on N-terminal Phe, cyclised to the C-terminal Cys)
FSVSHPDPWVNGLWLPC (ClAc on N-terminal Phe, cyclised to the C-terminal Cys)
FSVTHIDPWVNGLYLPC (ClAc on N-terminal Phe, cyclised to the C-terminal Cys)
FTVYSDDPWVNGLWLRC (ClAc on N-terminal Phe, cyclised to the C-terminal Cys)
FVVTHPDPWVNGLFLPC (ClAc on N-terminal Phe, cyclised to the C-terminal Cys)
FEVSHPDPWVNGLWIPC (ClAc on N-terminal Phe, cyclised to the C-terminal Cys)
FVVYSSDPWVNGLHLTC (ClAc on N-terminal Phe, cyclised to the C-terminal Cys)
FVVKHPDPWVNGLYFHC (ClAc on N-terminal Phe, cyclised to the C-terminal Cys)
FTVKHPDPWVNGLWISC (ClAc on N-terminal Phe, cyclised to the C-terminal Cys)
FAVKHSDPWVNGLYLPC (ClAc on N-terminal Phe, cyclised to the C-terminal Cys)
FVVRHSDPWVNGLWIDC (ClAc on N-terminal Phe, cyclised to the C-terminal Cys)
FIVSHPDPWVNGLWLPC (ClAc on N-terminal Phe, cyclised to the C-terminal Cys)
FSVYGLDPWINGLRFVC (ClAc on N-terminal Phe, cyclised to the C-terminal Cys)
FVVVHADPWVNGLWIQC (ClAc on N-terminal Phe, cyclised to the C-terminal Cys)
FTVRHTDPWVNGLWISC (ClAc on N-terminal Phe, cyclised to the C-terminal Cys)

Target: extracellular domain of VEGFR2 immobilized onto magnetic beads (Homo sapiens (Human)) (UniProt P35968)
Assay: TRAP display selection on VEGFR2, second optimization of BL1 (Xaa16 to Xaa20, Xaa26, Xaa29, Xaa30 randomized)

binding, binds:
FIGIYRVKVHPISLEPC (MCAB on N-terminal Phe, cyclised to the C-terminal Cys)
FIGPYRVKVHPVSLEYC (MCAB on N-terminal Phe, cyclised to the C-terminal Cys)

Target: extracellular domain of VEGFR2 immobilized onto magnetic beads (Homo sapiens (Human)) (UniProt P35968)
Assay: TRAP display selection on VEGFR2 extracellular domain on magnetic beads

binding, binds:
FIGHYRVKVHPISLERC (MCAB on N-terminal L-Phe, cyclised to the C-terminal Cys)
FVVVSTDPWVNGLYIDC (ClAc on N-terminal L-Phe, cyclised to the C-terminal Cys)

Target: extracellular domain of VEGFR2 immobilized onto magnetic beads (Homo sapiens (Human)) (UniProt P35968)
Assay: TRAP display selection on immobilised VEGFR2, second optimisation of BL1

binding, binds:
FIGPYRVKVHPVSLLPC (MCAB on N-terminal Phe, cyclised to the C-terminal Cys)
FIGPYLVKVHPVSLHFC (MCAB on N-terminal Phe, cyclised to the C-terminal Cys)
FIGIYRVKVHPISLEPC (MCAB on N-terminal Phe, cyclised to the C-terminal Cys)
FVNGYAVKVHPVSLEPC (MCAB on N-terminal Phe, cyclised to the C-terminal Cys)
FVGPYAVKVHPISLSPC (MCAB on N-terminal Phe, cyclised to the C-terminal Cys)
FIGPYAVKVHPVSLEPC (MCAB on N-terminal Phe, cyclised to the C-terminal Cys)
FIGAYKVKVHPISLQPC (MCAB on N-terminal Phe, cyclised to the C-terminal Cys)
FIGPWFVKVHPVSLEPC (MCAB on N-terminal Phe, cyclised to the C-terminal Cys)
FVNGYIVKVHPVSLEPC (MCAB on N-terminal Phe, cyclised to the C-terminal Cys)
FIGIYRVKVHPISLEYC (MCAB on N-terminal Phe, cyclised to the C-terminal Cys)
FIGIYRVKVHPVSLEPC (MCAB on N-terminal Phe, cyclised to the C-terminal Cys)
FIYGFAVKVHPVSLEPC (MCAB on N-terminal Phe, cyclised to the C-terminal Cys)
FLNGYYVKVHPVSLEPC (MCAB on N-terminal Phe, cyclised to the C-terminal Cys)
FIGPYRVKVHPVSLEYC (MCAB on N-terminal Phe, cyclised to the C-terminal Cys)
FVGHYRVKVHPISLLPC (MCAB on N-terminal Phe, cyclised to the C-terminal Cys)
FLGPYRVKVHPISLHFC (MCAB on N-terminal Phe, cyclised to the C-terminal Cys)
FIGEYRVKVHPISLAPC (MCAB on N-terminal Phe, cyclised to the C-terminal Cys)
FINSYVVKVHPISLEPC (MCAB on N-terminal Phe, cyclised to the C-terminal Cys)
FILGYFVKVHPVSLDPC (MCAB on N-terminal Phe, cyclised to the C-terminal Cys)
FIGPYRVKVHPISLEWC (MCAB on N-terminal Phe, cyclised to the C-terminal Cys)
FYNGFAVKVHPISLENC (MCAB on N-terminal Phe, cyclised to the C-terminal Cys)
FIGPYWVKVHPISLLPC (MCAB on N-terminal Phe, cyclised to the C-terminal Cys)
FIGPYHVKVHPVSLEPC (MCAB on N-terminal Phe, cyclised to the C-terminal Cys)
FIGTWVVKVHPVSLEPC (MCAB on N-terminal Phe, cyclised to the C-terminal Cys)
FIGIFRVKVHPISLEPC (MCAB on N-terminal Phe, cyclised to the C-terminal Cys)
FIGRYAVKVHPISLEPC (MCAB on N-terminal Phe, cyclised to the C-terminal Cys)
FVNGYRVKVHPISLDWC (MCAB on N-terminal Phe, cyclised to the C-terminal Cys)
FLNGYRVKVHPISLEPC (MCAB on N-terminal Phe, cyclised to the C-terminal Cys)
